# Laboratory results published in patent US8772319B2 (priority 2004, dated 2014).
# For at least one compound, name, drawing or mass did not settle the structure.
# Legend:
# [1] = test system: male Swiss-Webster mice; test: Locomotor activity, compound alone, 1-h session; format: in vivo, mouse; conditions: Table 8; ligand alone study
# Procedure: (§1) 3. Locomotor Activity. […] Panels of infrared beams (16 beams) and corresponding photodetectors were located in the horizontal direction along the sides of each activity chamber. […] Just prior to placement in the apparatus, all mice received a saline injection IP. In all studies, horizontal activity (interruption of 1 photocell beam) was measured for 1-h within 10-min periods. Testing was conducted with one mouse per activity chamber. […] Plot the mean (±SEM) maximal stimulant activity (total counts in the 30 min period divided by 3) vs dose. Perform a log10 transformation of the 30 min period average counts for individual subjects to homogenize variances for subsequent analyses. […] Fit the 30 min period average counts across subjects to a function of log10 dose using least-squares curve-fitting analyses (i.e. TableCurve software from Jandel). Estimate the maximum effect from the resultant dose-response curve. […] Determine the ED50 (dose that produces ½ maximal stimulant activity) from a linear regression analysis of the ascending portion (up to the dose that produces a maximal effect) of the curve. […] Plot the mean (±SEM) activity (total counts in the 30 min period divided by 3) vs dose. […] In all studies, horizontal activity (interruption of photocell beams) was measured for 8-h within 10-min periods, beginning at 0800 hrs (2 hours after lights on). […]
# [2] = test system: male Swiss-Webster mice; test: Cocaine/compound interaction study on locomotor activity; format: in vivo, mouse; conditions: Table 8; ligand-cocaine interaction study, 20 mg/kg cocaine IP
# [3] = test system: male Swiss-Webster mice; test: Locomotor activity 8-hour time course/dose response study; conditions: Table 9, ligand alone study
# Procedure: as §1
structure (smiles),measurement,setting,value
"Fc1ccc(C(OCCN2CCN(CCCc3ccccc3)CC2)c2ccc(F)cc2)cc1 [GBR 12909, reference compound]",mode of action,[1],monophasic
same,"AD50, dose attenuating cocaine-induced stimulation by 50%",[2],biphasic^h
same,mode of action,[3],monophasic
